Assay results: publication PMC6042961
Results are given in words; binding and its absence hold for the method and conditions named. Binding seen in cells or lysates may run through a third protein. These calls come from enrichment with a bait or labelling near it, and not all partners need be listed.

By UniProt entry, the sequences of proteins in these tests, tags left out. Residues count along the entry.
UniProt P31946: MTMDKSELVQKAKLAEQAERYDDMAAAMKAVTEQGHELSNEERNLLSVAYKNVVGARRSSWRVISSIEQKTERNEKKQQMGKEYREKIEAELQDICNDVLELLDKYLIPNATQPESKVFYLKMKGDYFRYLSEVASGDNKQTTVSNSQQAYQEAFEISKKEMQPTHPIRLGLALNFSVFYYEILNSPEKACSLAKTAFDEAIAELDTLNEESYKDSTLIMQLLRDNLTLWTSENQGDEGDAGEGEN
UniProt P62258: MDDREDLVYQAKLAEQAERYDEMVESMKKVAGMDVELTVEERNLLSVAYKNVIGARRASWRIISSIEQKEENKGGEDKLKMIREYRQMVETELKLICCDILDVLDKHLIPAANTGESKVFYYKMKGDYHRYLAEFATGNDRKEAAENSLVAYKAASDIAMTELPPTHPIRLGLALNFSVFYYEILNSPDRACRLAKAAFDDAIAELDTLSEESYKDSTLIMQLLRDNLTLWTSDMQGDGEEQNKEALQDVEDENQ
UniProt P31947: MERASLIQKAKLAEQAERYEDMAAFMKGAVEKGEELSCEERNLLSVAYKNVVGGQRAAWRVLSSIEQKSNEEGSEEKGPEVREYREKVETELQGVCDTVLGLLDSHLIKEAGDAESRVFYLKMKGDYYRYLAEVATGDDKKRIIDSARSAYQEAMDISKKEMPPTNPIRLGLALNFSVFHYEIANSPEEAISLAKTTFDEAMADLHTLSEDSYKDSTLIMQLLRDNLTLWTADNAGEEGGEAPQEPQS
UniProt P63104: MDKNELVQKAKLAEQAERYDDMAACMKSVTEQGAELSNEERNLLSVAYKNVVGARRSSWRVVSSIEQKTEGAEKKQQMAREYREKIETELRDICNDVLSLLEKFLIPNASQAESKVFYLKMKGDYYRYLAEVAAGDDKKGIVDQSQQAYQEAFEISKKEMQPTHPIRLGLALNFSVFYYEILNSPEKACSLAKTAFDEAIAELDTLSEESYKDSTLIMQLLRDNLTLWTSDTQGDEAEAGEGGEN
UniProt O00629: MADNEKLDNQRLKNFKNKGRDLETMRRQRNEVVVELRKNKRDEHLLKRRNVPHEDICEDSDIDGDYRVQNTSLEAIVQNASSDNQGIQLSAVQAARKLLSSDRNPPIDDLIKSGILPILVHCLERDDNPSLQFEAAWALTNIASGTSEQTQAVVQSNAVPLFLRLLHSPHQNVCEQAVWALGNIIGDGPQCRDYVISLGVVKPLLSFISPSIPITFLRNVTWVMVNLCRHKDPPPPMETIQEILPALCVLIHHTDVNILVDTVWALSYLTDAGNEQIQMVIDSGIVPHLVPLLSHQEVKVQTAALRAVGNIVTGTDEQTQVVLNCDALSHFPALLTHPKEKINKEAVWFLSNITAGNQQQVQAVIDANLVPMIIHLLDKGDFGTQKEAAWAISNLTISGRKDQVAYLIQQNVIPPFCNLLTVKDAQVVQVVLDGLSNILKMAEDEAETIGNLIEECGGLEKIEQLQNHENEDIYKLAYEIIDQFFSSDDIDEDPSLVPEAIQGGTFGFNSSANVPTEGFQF
UniProt Q9BXB1, residues 25-951: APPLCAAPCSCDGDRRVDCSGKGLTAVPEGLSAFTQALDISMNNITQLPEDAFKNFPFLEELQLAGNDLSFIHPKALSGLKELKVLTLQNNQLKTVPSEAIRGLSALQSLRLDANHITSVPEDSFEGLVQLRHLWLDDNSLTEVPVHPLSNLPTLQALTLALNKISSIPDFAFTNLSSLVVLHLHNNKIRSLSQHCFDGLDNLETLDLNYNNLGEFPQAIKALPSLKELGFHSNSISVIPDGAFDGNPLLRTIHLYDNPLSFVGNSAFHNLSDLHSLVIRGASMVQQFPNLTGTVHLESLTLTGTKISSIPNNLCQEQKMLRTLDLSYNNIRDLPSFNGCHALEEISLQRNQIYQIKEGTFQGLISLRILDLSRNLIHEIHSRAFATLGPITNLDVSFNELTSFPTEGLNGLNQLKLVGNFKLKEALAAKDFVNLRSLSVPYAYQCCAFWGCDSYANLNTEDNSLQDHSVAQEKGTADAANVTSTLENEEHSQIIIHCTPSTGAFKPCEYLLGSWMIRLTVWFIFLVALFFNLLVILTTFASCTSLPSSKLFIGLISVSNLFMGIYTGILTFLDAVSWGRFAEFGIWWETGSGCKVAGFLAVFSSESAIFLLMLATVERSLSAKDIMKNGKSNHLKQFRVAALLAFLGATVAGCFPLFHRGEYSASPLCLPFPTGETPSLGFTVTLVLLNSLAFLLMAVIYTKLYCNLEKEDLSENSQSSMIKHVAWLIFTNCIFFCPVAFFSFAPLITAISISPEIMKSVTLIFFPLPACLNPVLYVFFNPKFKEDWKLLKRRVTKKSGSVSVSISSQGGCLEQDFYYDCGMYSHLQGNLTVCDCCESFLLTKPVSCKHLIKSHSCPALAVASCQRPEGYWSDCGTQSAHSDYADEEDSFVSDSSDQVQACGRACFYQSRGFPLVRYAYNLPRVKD
UniProt P28482: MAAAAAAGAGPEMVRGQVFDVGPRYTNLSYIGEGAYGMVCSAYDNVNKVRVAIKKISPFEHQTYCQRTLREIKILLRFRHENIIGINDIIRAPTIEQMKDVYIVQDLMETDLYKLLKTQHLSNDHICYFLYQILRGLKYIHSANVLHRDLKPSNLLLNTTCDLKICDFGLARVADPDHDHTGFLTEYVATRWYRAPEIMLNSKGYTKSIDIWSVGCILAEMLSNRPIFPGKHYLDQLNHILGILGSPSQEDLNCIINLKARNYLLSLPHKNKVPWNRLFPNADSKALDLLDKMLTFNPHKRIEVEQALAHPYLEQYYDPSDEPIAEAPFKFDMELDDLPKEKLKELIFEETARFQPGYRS
UniProt P27361: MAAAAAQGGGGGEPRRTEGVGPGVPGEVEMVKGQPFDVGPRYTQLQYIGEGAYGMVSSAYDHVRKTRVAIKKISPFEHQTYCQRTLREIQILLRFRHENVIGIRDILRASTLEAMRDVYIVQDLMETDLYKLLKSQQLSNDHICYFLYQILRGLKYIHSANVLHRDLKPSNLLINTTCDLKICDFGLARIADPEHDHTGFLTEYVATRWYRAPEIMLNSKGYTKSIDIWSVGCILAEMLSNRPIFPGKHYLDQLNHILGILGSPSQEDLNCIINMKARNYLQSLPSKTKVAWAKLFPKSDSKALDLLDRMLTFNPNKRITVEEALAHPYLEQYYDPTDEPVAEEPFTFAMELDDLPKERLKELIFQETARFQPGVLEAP
UniProt P11940: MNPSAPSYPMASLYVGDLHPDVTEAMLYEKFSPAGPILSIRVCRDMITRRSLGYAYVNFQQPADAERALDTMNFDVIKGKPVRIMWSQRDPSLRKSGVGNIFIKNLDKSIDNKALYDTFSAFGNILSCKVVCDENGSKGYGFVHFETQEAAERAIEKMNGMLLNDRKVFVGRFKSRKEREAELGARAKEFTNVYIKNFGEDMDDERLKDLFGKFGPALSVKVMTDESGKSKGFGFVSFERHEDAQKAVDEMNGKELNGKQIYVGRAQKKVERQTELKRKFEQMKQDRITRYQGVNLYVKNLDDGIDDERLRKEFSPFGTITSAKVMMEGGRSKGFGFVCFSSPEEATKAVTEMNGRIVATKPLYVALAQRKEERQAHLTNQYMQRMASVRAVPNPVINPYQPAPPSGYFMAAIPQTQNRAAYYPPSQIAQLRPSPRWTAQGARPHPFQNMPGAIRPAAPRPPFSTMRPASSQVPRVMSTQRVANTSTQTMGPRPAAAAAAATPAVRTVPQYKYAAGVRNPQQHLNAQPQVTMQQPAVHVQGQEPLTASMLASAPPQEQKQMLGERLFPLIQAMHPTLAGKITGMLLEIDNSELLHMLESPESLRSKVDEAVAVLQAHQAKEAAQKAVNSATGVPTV
UniProt Q5SWA1: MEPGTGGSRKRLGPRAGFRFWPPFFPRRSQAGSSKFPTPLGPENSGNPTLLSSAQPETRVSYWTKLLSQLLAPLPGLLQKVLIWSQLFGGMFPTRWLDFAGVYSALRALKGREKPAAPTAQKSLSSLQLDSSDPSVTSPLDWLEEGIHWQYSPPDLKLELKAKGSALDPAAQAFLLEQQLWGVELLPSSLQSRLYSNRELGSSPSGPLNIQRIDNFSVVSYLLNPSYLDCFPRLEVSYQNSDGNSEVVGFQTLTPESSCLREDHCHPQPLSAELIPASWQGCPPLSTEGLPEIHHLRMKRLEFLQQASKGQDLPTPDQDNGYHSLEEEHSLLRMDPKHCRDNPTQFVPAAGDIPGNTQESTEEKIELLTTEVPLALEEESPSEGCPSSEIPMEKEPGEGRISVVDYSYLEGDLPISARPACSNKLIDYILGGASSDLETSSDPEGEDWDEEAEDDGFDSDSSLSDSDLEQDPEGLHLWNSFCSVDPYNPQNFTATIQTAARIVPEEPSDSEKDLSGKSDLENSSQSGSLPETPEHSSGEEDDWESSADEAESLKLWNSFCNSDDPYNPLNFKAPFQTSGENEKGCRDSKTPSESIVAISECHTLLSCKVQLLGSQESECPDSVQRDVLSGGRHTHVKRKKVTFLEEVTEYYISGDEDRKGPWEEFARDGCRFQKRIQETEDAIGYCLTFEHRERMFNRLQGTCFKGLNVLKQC
UniProt P51812: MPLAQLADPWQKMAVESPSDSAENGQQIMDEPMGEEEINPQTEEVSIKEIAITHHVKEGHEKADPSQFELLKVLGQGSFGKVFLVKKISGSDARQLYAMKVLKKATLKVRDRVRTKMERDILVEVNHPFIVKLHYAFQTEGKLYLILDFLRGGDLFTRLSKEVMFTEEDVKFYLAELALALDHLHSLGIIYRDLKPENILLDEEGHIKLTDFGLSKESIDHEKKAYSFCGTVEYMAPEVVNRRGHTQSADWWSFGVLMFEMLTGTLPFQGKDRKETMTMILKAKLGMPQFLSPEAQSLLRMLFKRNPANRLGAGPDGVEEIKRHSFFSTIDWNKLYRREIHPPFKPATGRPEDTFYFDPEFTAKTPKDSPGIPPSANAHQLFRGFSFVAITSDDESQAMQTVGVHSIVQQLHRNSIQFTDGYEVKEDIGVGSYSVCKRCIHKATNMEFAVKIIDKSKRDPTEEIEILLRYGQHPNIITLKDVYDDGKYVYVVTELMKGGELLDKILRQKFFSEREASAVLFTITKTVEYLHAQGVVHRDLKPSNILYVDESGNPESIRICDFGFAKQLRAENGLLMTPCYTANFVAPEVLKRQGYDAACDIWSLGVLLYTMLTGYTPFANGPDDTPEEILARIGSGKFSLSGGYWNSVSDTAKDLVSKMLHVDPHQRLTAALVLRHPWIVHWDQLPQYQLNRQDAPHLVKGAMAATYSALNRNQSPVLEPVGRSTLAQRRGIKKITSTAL

T1: human iRhom2-3xHA (human) (UniProt Q6PJF5)
T1 sequence: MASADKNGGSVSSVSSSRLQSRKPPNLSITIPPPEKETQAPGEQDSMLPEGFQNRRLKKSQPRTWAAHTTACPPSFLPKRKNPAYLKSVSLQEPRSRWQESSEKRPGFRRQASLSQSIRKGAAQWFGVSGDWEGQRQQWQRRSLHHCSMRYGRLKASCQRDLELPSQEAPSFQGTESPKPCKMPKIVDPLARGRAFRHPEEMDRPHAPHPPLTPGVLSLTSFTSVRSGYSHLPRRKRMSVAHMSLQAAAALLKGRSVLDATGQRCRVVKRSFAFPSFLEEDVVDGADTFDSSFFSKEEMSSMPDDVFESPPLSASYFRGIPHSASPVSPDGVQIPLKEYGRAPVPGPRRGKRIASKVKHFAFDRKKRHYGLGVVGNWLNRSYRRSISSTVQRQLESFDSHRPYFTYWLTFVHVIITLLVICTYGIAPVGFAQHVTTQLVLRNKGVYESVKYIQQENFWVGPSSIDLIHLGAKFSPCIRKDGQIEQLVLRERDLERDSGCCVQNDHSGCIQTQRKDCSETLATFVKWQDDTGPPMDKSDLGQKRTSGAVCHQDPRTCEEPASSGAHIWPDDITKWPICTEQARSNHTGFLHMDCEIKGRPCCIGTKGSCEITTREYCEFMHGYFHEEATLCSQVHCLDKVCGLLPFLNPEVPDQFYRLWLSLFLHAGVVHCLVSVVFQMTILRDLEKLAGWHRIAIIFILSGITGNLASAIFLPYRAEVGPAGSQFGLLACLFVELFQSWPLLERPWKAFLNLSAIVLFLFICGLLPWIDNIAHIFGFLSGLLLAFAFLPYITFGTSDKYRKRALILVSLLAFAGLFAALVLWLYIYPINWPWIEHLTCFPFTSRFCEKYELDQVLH

B1: Protein lin-7 homolog C (protein, UniProt Q9NUP9 1-197)
chain: MAALGEPVRLERDICRAIELLEKLQRSGEVPPQKLQALQRVLQSEFCNAVREVYEHVYETVDISSSPEVRANATAKATVAAFAASEGHSHPRVVELPKTEEGLGFNIMGGKEQNSPIYISRIIPGGIADRHGGLKRGDQLLSVNGVSVEGEHHEKAVELLKAAQGKVKLVVRYTPKVLEEMESRFEKMRSAKRRQQT
B2: 14-3-3 protein theta (protein, UniProt P27348 1-245)
chain: MEKTELIQKAKLAEQAERYDDMATCMKAVTEQGAELSNEERNLLSVAYKNVVGGRRSAWRVISSIEQKTDTSDKKLQLIKDYREKVESELRSICTTVLELLDKYLIANATNPESKVFYLKMKGDYFRYLAEVACGDDRKQTIDNSQGAYQEAFDISKKEMQPTHPIRLGLALNFSVFYYEILNNPELACTLAKTAFDEAIAELDTLNEDSYKDSTLIMQLLRDNLTLWTSDSAGEECDAAEGAEN
B3: Ras-related protein Rap-2b (protein, UniProt P61225 1-183)
chain: MREYKVVVLGSGGVGKSALTVQFVTGSFIEKYDPTIEDFYRKEIEVDSSPSVLEILDTAGTEQFASMRDLYIKNGQGFILVYSLVNQQSFQDIKPMRDQIIRVKRYERVPMILVGNKVDLEGEREVSYGEGKALAEEWSCPFMETSAKNKASVDELFAEIVRQMNYAAQPNGDEGCCSACVIL
B4: 14-3-3 protein eta (protein, UniProt Q04917 1-246)
chain: MGDREQLLQRARLAEQAERYDDMASAMKAVTELNEPLSNEDRNLLSVAYKNVVGARRSSWRVISSIEQKTMADGNEKKLEKVKAYREKIEKELETVCNDVLSLLDKFLIKNCNDFQYESKVFYLKMKGDYYRYLAEVASGEKKNSVVEASEAAYKEAFEISKEQMQPTHPIRLGLALNFSVFYYEIQNAPEQACLLAKQAFDDAIAELDTLNEDSYKDSTLIMQLLRDNLTLWTSDQQDEEAGEGN
B5: Signal peptidase subunit SEC11C (protein, UniProt Q9BY50 1-192)
chain: MVRAGAVGAHLPASGLDIFGDLKKMNKRQLYYQVLNFAMIVSSALMIWKGLIVLTGSESPIVVVLSGSMEPAFHRGDLLFLTNFREDPIRAGEIVVFKVEGRDIPIVHRVIKVHEKDNGDIKFLTKGDNNEVDDRGLYKEGQNWLEKKDVVGRARGFLPYVGMVTIIMNDYPKFKYALLAVMGAYVLLKRES
B6: 14-3-3 protein gamma (protein, UniProt P61981 1-247)
chain: MVDREQLVQKARLAEQAERYDDMAAAMKNVTELNEPLSNEERNLLSVAYKNVVGARRSSWRVISSIEQKTSADGNEKKIEMVRAYREKIEKELEAVCQDVLSLLDNYLIKNCSETQYESKVFYLKMKGDYYRYLAEVATGEKRATVVESSEKAYSEAHEISKEHMQPTHPIRLGLALNYSVFYYEIQNAPEQACHLAKTAFDDAIAELDTLNEDSYKDSTLIMQLLRDNLTLWTSDQQDDDGGEGNN
B7: Tumor suppressor candidate 3 (protein, UniProt Q13454 42-348)
chain: QKKKENLLAEKVEQLMEWSSRRSIFRMNGDKFRKFIKAPPRNYSMIVMFTALQPQRQCSVCRQANEEYQILANSWRYSSAFCNKLFFSMVDYDEGTDVFQQLNMNSAPTFMHFPPKGRPKRADTFDLQRIGFAAEQLAKWIADRTDVHIRVFRPPNYSGTIALALLVSLVGGLLYLRRNNLEFIYNKTGWAMVSLCIVFAMTSGQMWNHIRGPPYAHKNPHNGQVSYIHGSSQAQFVAESHIILVLNAAITMGMVLLNEAATSKGDVGKRRIICLVGLGLVVFFFSFLLSIFRSKYHGYPYSDLDFE

These molecules were tested against T1, human iRhom2-3xHA (human) (assay: affinity purification with mass spectrometry; anti-HA immunoprecipitation from HEK293T cells stably expressing human iRhom2-3xHA; bead eluates analysed by label-free mass spectrometry; UNC93B1-3xHA as negative control; three biological replicates).

binding, binds:
B1
B2
B3
B4
B5
B6
B7

Molecular target: T1, human iRhom2-3xHA (human)
Experiment: as above
Remark: another data set of the same source

binding, binds:
14-3-3 protein alpha/beta (from UniProt P31946 1-246)
14-3-3 protein epsilon (from UniProt P62258 1-255)
14-3-3 protein sigma (from UniProt P31947 1-248)
14-3-3 protein zeta/delta (from UniProt P63104 1-245)
Importin subunit alpha-3 (from UniProt O00629 1-521)
Leucine-rich repeat-containing GPCR 4 (from UniProt Q9BXB1 25-951) (receptor)
Mitogen-activated protein kinase 1 (from UniProt P28482 1-360) (enzyme)
Mitogen-activated protein kinase 3 (from UniProt P27361 1-379) (enzyme)
Polyadenylate-binding protein 1; Polyadenylate-binding protein 3 (from UniProt P11940 1-636)
Protein phosphatase 1 subunit 15B (from UniProt Q5SWA1 1-713)
Ribosomal protein S6 kinase alpha-3 (from UniProt P51812 1-740) (enzyme)
